The text below walks through data of PMC8529494.

Protein sequences, listed by entry. Tags and fused reporters are not part of them.
UniProt Q92794: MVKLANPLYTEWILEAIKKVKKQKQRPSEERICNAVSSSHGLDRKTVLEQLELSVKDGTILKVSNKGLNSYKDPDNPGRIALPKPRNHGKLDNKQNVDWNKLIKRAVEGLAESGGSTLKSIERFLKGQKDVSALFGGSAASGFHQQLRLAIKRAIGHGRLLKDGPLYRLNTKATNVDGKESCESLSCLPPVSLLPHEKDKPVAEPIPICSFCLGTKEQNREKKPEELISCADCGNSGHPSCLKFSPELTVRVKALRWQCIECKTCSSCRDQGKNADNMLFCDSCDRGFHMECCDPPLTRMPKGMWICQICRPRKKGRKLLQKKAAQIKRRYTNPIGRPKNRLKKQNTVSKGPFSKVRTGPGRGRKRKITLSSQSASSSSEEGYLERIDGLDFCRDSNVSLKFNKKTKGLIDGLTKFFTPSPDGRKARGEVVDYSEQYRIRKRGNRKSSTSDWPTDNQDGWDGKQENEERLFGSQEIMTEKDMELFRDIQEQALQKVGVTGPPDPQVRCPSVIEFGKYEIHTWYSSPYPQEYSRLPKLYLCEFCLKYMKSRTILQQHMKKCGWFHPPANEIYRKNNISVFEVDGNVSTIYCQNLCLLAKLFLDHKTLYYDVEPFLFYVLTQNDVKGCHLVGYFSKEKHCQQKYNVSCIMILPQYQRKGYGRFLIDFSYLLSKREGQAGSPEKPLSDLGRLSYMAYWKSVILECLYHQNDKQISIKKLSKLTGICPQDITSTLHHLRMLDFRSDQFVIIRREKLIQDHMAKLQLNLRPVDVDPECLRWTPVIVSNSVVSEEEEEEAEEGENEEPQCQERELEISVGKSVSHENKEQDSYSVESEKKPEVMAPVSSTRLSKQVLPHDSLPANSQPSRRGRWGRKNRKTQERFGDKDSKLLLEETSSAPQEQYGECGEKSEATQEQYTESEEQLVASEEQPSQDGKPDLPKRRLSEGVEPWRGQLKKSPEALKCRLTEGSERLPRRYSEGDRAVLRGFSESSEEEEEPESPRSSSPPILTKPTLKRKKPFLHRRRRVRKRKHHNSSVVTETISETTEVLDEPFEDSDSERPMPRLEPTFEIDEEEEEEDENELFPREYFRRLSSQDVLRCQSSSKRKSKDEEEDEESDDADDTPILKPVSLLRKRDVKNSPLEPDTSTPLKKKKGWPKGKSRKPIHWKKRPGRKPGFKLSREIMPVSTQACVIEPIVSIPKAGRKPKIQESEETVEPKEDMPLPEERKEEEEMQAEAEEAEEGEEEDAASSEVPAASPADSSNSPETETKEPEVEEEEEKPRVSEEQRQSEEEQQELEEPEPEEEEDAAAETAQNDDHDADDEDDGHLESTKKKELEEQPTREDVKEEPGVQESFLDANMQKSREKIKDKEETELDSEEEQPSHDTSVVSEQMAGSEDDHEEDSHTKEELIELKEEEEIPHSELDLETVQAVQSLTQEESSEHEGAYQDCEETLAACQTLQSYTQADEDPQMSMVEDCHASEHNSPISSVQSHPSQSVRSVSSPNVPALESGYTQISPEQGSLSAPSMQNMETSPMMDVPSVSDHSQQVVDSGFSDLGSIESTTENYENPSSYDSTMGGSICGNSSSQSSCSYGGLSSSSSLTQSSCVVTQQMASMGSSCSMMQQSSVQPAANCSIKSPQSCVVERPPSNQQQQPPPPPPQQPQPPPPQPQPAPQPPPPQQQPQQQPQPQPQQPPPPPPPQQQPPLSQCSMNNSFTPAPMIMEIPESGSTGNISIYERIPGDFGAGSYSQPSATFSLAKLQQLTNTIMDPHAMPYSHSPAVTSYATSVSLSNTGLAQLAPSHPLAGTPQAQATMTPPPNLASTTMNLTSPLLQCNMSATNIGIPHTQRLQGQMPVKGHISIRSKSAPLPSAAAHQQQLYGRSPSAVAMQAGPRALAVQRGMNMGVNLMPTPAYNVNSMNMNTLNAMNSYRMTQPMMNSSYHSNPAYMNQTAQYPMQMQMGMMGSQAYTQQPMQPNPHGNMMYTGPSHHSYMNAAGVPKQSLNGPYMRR
UniProt P84022: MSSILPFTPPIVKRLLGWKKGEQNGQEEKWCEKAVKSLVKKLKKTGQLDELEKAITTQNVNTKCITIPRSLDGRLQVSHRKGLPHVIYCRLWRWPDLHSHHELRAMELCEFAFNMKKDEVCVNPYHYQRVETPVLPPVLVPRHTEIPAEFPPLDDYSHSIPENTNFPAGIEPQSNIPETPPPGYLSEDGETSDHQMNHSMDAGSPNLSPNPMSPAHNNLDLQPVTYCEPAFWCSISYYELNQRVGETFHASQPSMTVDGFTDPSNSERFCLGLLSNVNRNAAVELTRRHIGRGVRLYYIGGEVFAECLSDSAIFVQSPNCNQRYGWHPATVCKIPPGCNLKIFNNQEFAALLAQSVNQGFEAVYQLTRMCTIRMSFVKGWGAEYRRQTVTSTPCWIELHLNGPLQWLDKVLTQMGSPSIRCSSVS

In the experiment the target is Flag-tagged KAT6A (lysine acetyltransferase 6A) (UniProt Q92794). The experiment can be described thus: affinity purification with mass spectrometry; KAT6A complex purified from MDA-MB-231 cells transduced with Flag-tagged KAT6A; MS of the precipitate.

No constants are given. Whether binding was seen depends on the method and setting. Binding seen in cells or lysates may run through a third protein. Here binding means that the protein was enriched with, or labelled near, the bait; the list need not be complete.

Consider “SMAD3, endogenous (from UniProt P84022 1-425)”, for which the binding result is “binds”.
